From patent US20230279233A1, “ATROROSINS AS FOOD COLORS” (Chromologics ApS, priority 2020, published 2023)

Assay: Coloring of hard and soft candy, CIEL*a*b*

For `CCCCCCCC(=O)C1=C2C=C3C=C(/C=C\C(=O)O)N([C@@H](CCC(=O)O)C(=O)O)C=C3C(=O)C2(C)OC1=O` (stereo partly drawn) [Atrorosin-E], the “A (CIEL*a*b* red and green a*)” value (Hard candy 1, 43.75 PPM) was 39.83, the “B (CIEL*a*b* yellow and blue b*)” value (Hard candy 1, 43.75 PPM) was 31.99 and the “L (CIEL*a*b* lightness L*)” value (Hard candy 1, 43.75 PPM) was 56.32. For the same compound, the “A (CIEL*a*b* red and green a*)” value (Hard candy 2, 87.5 PPM) was 51.19, the “B (CIEL*a*b* yellow and blue b*)” value (Hard candy 2, 87.5 PPM) was 34.42 and the “L (CIEL*a*b* lightness L*)” value (Hard candy 2, 87.5 PPM) was 39.82. The “A (CIEL*a*b* red and green a*)” value (Soft candy 1, 8.75 PPM) was 21.22, the “B (CIEL*a*b* yellow and blue b*)” value (Soft candy 1, 8.75 PPM) was 6.14 and the “L (CIEL*a*b* lightness L*)” value (Soft candy 1, 8.75 PPM) was 51.88. The “A (CIEL*a*b* red and green a*)” value (Soft candy 2, 87.5 PPM) was 15.92, the “B (CIEL*a*b* yellow and blue b*)” value (Soft candy 2, 87.5 PPM) was 4.69 and the “L (CIEL*a*b* lightness L*)” value (Soft candy 2, 87.5 PPM) was 25.95.
